Key:
non-reduced Trastuzumab = experiment: Control reaction with non-reduced antibody, SDS-PAGE and intact-protein MS; settings: for modification of non-reduced antibody: antibody not reduced prior to the reaction
HEK293-cell lysate = experiment: Proteome-wide cysteine profiling, LC-MS/MS
[1] = general procedure: Fmoc solid-phase peptide synthesis; Rink amide resin, loading 0.78 mmol/g; HCTU/Oxyma/DIPEA; settings: conjugation step
[2] = 1 mg/ml lysate, three independent replicates, MS Amanda search

Compound | modification of non-reduced antibody (non-reduced Trastuzumab) | conjugation yield [1] | further results
C#CP(=O)(/C=C/SCCC(=O)NCCNc1cccc2c(S(=O)(=O)O)cccc12)OCC (stereo not drawn) [CS265, EDANS-ethyl-thiovinyl-ethynylphosphinate] | no modification could be observed |  | 
C#CP(=O)(OCC)c1cn(CCC(=O)NCCNc2cccc3c(S(=O)(=O)O)cccc23)nn1 (stereo not drawn) [CS266, EDANS-1,2,3-triazol-ethyl-ethynylphosphinate] | no modification could be observed |  | labelling of non-reduced antibody with 100 eq. (non-reduced Trastuzumab; 100 eq., 16 h, without reducing agent, intact-protein MS): No labelling
C#CP(=O)(OCC)c1cn(CCCNC(=O)CCCCCC2NC(=O)NC2C)nn1 (stereo not drawn) [CS418, Desthiobiotin-1,2,3-triazol-ethyl-ethynylphosphinate] |  |  | unique cysteine sites at lower proteomic input (HEK293-cell lysate; 0.1 mg/ml lysate, 50 μg total): 7023; proteins with labeled cysteine sites (HEK293-cell lysate; [2]): 3978; unique labeled cysteine sites (HEK293-cell lysate; [2]): 8661
C#CP(=O)(C#C)OCC [compound 1, ethyl diethynyl phosphinate] | no rebridging or modification could be observed |  | 
(PEG4-Val-Cit-PAB-MMAE)-triazolyl diethynyl phosphinoxide |  | 16% | 
(PEG4-Val-Cit-PAB-MMAE)-triazolyl-mPEG4-ethynyl phosphinate |  | 59% | 

Reference: patent publication US20240350655A1 (FORSCHUNGSVERBUND BERLIN E.V., priority 2021, published 2024)
